Results from the supplement of paper PMC12542422.
Where a name gives a salt, the structure may show the parent alone. ± gives the standard deviation of the averaged measurements. The list shows a part of the results. Values are raw readings; no control value is given beside them.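 Across three biological replicates, HeLa cells were imaged for ribosome assembly using ENP1 staining (export block present or absent) or inducible tagged ribosomal protein reporters. Machine learning classified each cell's signal localization relative to DMSO controls. Hits exceeded the DMSO false-positive mean by five standard deviations and were then visually confirmed.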

tested on: HeLa K (ENP1 immunofluorescence, +LMB); test: fraction of cells with nucleolar or nucleolar/nucleoplasmic ENP1 signal (MainHitrate); higher = more cells with nucleolar/nuclear readout signal (for ENP1 -LMB: less RNAPI inhibition; for +LMB ENP1 and RP reporters: stronger nuclear/nucleolar retention, i.e. ribosome biogenesis defect); settings: concentration: 1 µM; treatment time: 6 h; ENP1 +LMB; leptomycin B: 20 nM, last 1.5 h

Question: With CNC(=O)Oc1ccc2c(c1)[C@]1(C)CCN(C)[C@@H]1N2C [Physostigmine Hemisulfate Salt] as the compound, how does the fraction read?
Answer: 0.0971 ± 0.12

Question: Which fraction does the source give for CN1C(=O)CCS(=O)(=O)C1c1ccc(Cl)cc1 (stereo unspecified) [Chlormezanone (Trancopal)] here?
Answer: 0.149 ± 0.22

Question: How did the fraction turn out when C[C@@H]1O[C@@H](O[C@H]2C[C@@H](O)[C@]3(CO)[C@H]4[C@H](O)C[C@]5(C)[C@@H](C6=CC(=O)OC6)CC[C@]5(O)[C@@H]4CC[C@]3(O)C2)[C@H](O)[C@H](O)[C@H]1O [Ouabain] was run?
Answer: 0.241 ± 0.33

Question: For CCC1(C)CC(=O)NC(=O)C1 [Bemegride], which fraction is on record?
Answer: 0.0706 ± 0.1

Question: For CN1[C@@H]2CC(O)C[C@H]1[C@@H]1O[C@@H]12 (stereo partly specified) [Scopine], which fraction is on record?
Answer: 0.128 ± 0.19

Question: For C[C@]12CC[C@H](O)CC1=CC[C@@H]1[C@@H]2CC[C@]2(C)C(=O)CC[C@@H]12 [Dehydroepiandrosterone (DHEA)], which fraction is on record?
Answer: 0.0467 ± 0.052

Question: CN1[C@@H]2CC[C@H]1C[C@@H](OC(=O)C(CO)c1ccccc1)C2 (stereo partly specified) [Atropine] was tested. Which fraction did it give?
Answer: 0.112 ± 0.15

Question: Which fraction does the source give for O=S(=O)(F)Cc1ccccc1 [PMSF (Phenylmethylsulfonyl Fluoride)] here?
Answer: 0.0965 ± 0.13

Question: Which fraction does the source give for CC[C@@H](C(N)=O)N1CCCC1=O [Levetiracetam] here?
Answer: 0.0858 ± 0.06

Question: CNC(=O)Oc1ccc2c(c1)[C@]1(C)CCN(C)[C@@H]1N2C [Physostigmine Salicylate] was tested. Which fraction did it give?
Answer: 0.229 ± 0.22

Question: Which fraction does the source give for N.N.[Cl][Pt][Cl] [Cisplatin] here?
Answer: 0.0832 ± 0.071

Question: For CN(C)C(=O)Oc1cccc([N+](C)(C)C)c1 [Neostigmine bromide (Prostigmin)], which fraction is on record?
Answer: 0.0889 ± 0.11

Question: For CN1CCc2cc3c(cc2C1O)OCO3 (stereo unspecified) [Hydrastinine HCl], which fraction is on record?
Answer: 0.185 ± 0.23

Question: Which fraction does the source give for CCC1=C[C@H]2CN3CCc4c([nH]c5ccccc45)[C@](C(=O)OC)(C2)[C@H]13 [Catharanthine] here?
Answer: 0.0475 ± 0.061

Question: Which fraction does the source give for C[N+]1(C)CCOC(O)(c2ccc(-c3ccc(C4(O)C[N+](C)(C)CCO4)cc3)cc2)C1 (stereo unspecified) [Hemicholinium Bromide] here?
Answer: 0.104 ± 0.1

Question: For Nc1nc(N)nc(NC2CC2)n1 [Cyromazine], which fraction is on record?
Answer: 0.0823 ± 0.11

Question: Which fraction does the source give for CC1C=CC=CCCC=CC=CC=CC=CC(OC2OC(C)C(O)C(N)C2O)CC2OC(O)(CC(O)C(O)CCC(O)CC(O)CC(O)CC(=O)OC(C)C(C)C1O)CC(O)C2C(=O)O (stereo unspecified) [Nystatin (Mycostatin)] here?
Answer: 0.114 ± 0.17

Question: For C[N+]1(C)[C@@H]2C[C@@H](OC(=O)[C@H](CO)c3ccccc3)C[C@H]1[C@@H]1O[C@@H]12 [Methscopolamine (Pamine)], which fraction is on record?
Answer: 0.119 ± 0.17

Question: For CN1[C@@H]2C[C@@H](OC(=O)[C@H](CO)c3ccccc3)C[C@H]1[C@@H]1O[C@@H]12 [Scopolamine hydrobromide], which fraction is on record?
Answer: 0.11 ± 0.15

Question: How did the fraction turn out when CC(=O)OC1CN2CCC1CC2 (stereo unspecified) [Aceclidine HCl] was run?
Answer: 0.206 ± 0.3

Question: Which fraction does the source give for C[N+](C)(C)CCCCCCCCCC[N+](C)(C)C [Decamethonium bromide] here?
Answer: 0.0625 ± 0.076

Question: Which fraction does the source give for C[N+]1(C)CCCC(OC(=O)C(O)(c2ccccc2)c2ccccc2)C1 (stereo unspecified) [Mepenzolate Bromide] here?
Answer: 0.107 ± 0.12

Question: With Cc1cccc(C)c1NC(=O)CN1CCCC1=O [Nefiracetam (Translon)] as the compound, how does the fraction read?
Answer: 0.0799 ± 0.083

Question: How did the fraction turn out when CC(O)(CS(=O)(=O)c1ccc(F)cc1)C(=O)Nc1ccc(C#N)c(C(F)(F)F)c1 (stereo unspecified) [Bicalutamide (Casodex)] was run?
Answer: 0.0514 ± 0.036

Question: How did the fraction turn out when C[C@]12C/C(=C/O)C(=O)C[C@@H]1CC[C@@H]1[C@@H]2CC[C@@]2(C)[C@H]1CC[C@]2(C)O [Oxymetholone] was run?
Answer: 0.0388 ± 0.038

Question: For O=c1[nH]c2ccccc2n1C1CCN(CCCC(c2ccc(F)cc2)c2ccc(F)cc2)CC1 [Pimozide], which fraction is on record?
Answer: 0.156 ± 0.22

Question: For Cc1cc(O)ccc1Cl [Chlorocresol], which fraction is on record?
Answer: 0.11 ± 0.16

Question: How did the fraction turn out when O=C(O)c1nn(Cc2ccc(Cl)cc2Cl)c2ccccc12 [Lonidamine] was run?
Answer: 0.133 ± 0.18

tested on: HeLa K (ENP1 immunofluorescence, no LMB); test: as above; settings: concentration: 1 µM; treatment time: 6 h; ENP1 -LMB; leptomycin B: none

Question: CNC(=O)Oc1ccc2c(c1)[C@]1(C)CCN(C)[C@@H]1N2C [Physostigmine Hemisulfate Salt] was tested. Which fraction did it give?
Answer: 0.9974 ± 0.0045

Question: With CN1C(=O)CCS(=O)(=O)C1c1ccc(Cl)cc1 (stereo unspecified) [Chlormezanone (Trancopal)] as the compound, how does the fraction read?
Answer: 0.989 ± 0.019

Question: Which fraction does the source give for C[C@@H]1O[C@@H](O[C@H]2C[C@@H](O)[C@]3(CO)[C@H]4[C@H](O)C[C@]5(C)[C@@H](C6=CC(=O)OC6)CC[C@]5(O)[C@@H]4CC[C@]3(O)C2)[C@H](O)[C@H](O)[C@H]1O [Ouabain] here?
Answer: 0.962 ± 0.065

Question: For CCC1(C)CC(=O)NC(=O)C1 [Bemegride], which fraction is on record?
Answer: 0.992 ± 0.014

Question: CN1[C@@H]2CC(O)C[C@H]1[C@@H]1O[C@@H]12 (stereo partly specified) [Scopine] was tested. Which fraction did it give?
Answer: 0.9962 ± 0.0066

Question: How did the fraction turn out when C[C@]12CC[C@H](O)CC1=CC[C@@H]1[C@@H]2CC[C@]2(C)C(=O)CC[C@@H]12 [Dehydroepiandrosterone (DHEA)] was run?
Answer: 0.985 ± 0.026

Question: Which fraction does the source give for CN1[C@@H]2CC[C@H]1C[C@@H](OC(=O)C(CO)c1ccccc1)C2 (stereo partly specified) [Atropine] here?
Answer: 0.989 ± 0.02

Question: O=S(=O)(F)Cc1ccccc1 [PMSF (Phenylmethylsulfonyl Fluoride)] was tested. Which fraction did it give?
Answer: 0.974 ± 0.044

Question: How did the fraction turn out when CC[C@@H](C(N)=O)N1CCCC1=O [Levetiracetam] was run?
Answer: 0.998 ± 0.0035

Question: CNC(=O)Oc1ccc2c(c1)[C@]1(C)CCN(C)[C@@H]1N2C [Physostigmine Salicylate] was tested. Which fraction did it give?
Answer: 0.9992 ± 0.0013

Question: How did the fraction turn out when N.N.[Cl][Pt][Cl] [Cisplatin] was run?
Answer: 0.9975 ± 0.0043

Question: For CN(C)C(=O)Oc1cccc([N+](C)(C)C)c1 [Neostigmine bromide (Prostigmin)], which fraction is on record?
Answer: 0.993 ± 0.013

Question: CN1CCc2cc3c(cc2C1O)OCO3 (stereo unspecified) [Hydrastinine HCl] was tested. Which fraction did it give?
Answer: 0.9985 ± 0.0026

Question: CCC1=C[C@H]2CN3CCc4c([nH]c5ccccc45)[C@](C(=O)OC)(C2)[C@H]13 [Catharanthine] was tested. Which fraction did it give?
Answer: 0.981 ± 0.033

Question: For C[N+]1(C)CCOC(O)(c2ccc(-c3ccc(C4(O)C[N+](C)(C)CCO4)cc3)cc2)C1 (stereo unspecified) [Hemicholinium Bromide], which fraction is on record?
Answer: 0.9982 ± 0.0031

Question: For Nc1nc(N)nc(NC2CC2)n1 [Cyromazine], which fraction is on record?
Answer: 0.981 ± 0.034

Question: For CC1C=CC=CCCC=CC=CC=CC=CC(OC2OC(C)C(O)C(N)C2O)CC2OC(O)(CC(O)C(O)CCC(O)CC(O)CC(O)CC(=O)OC(C)C(C)C1O)CC(O)C2C(=O)O (stereo unspecified) [Nystatin (Mycostatin)], which fraction is on record?
Answer: 0.994 ± 0.01

Question: With C[N+]1(C)[C@@H]2C[C@@H](OC(=O)[C@H](CO)c3ccccc3)C[C@H]1[C@@H]1O[C@@H]12 [Methscopolamine (Pamine)] as the compound, how does the fraction read?
Answer: 0.9947 ± 0.0092

Question: How did the fraction turn out when CN1[C@@H]2C[C@@H](OC(=O)[C@H](CO)c3ccccc3)C[C@H]1[C@@H]1O[C@@H]12 [Scopolamine hydrobromide] was run?
Answer: 0.9969 ± 0.0054

Question: For CC(=O)OC1CN2CCC1CC2 (stereo unspecified) [Aceclidine HCl], which fraction is on record?
Answer: 0.9977 ± 0.0039

Question: With C[N+](C)(C)CCCCCCCCCC[N+](C)(C)C [Decamethonium bromide] as the compound, how does the fraction read?
Answer: 0.985 ± 0.026

Question: C[N+]1(C)CCCC(OC(=O)C(O)(c2ccccc2)c2ccccc2)C1 (stereo unspecified) [Mepenzolate Bromide] was tested. Which fraction did it give?
Answer: 0.9981 ± 0.0032

Question: For Cc1cccc(C)c1NC(=O)CN1CCCC1=O [Nefiracetam (Translon)], which fraction is on record?
Answer: 0.987 ± 0.023

Question: Which fraction does the source give for CC(O)(CS(=O)(=O)c1ccc(F)cc1)C(=O)Nc1ccc(C#N)c(C(F)(F)F)c1 (stereo unspecified) [Bicalutamide (Casodex)] here?
Answer: 0.9981 ± 0.0033

Question: With C[C@]12C/C(=C/O)C(=O)C[C@@H]1CC[C@@H]1[C@@H]2CC[C@@]2(C)[C@H]1CC[C@]2(C)O [Oxymetholone] as the compound, how does the fraction read?
Answer: 0.979 ± 0.037

Question: O=c1[nH]c2ccccc2n1C1CCN(CCCC(c2ccc(F)cc2)c2ccc(F)cc2)CC1 [Pimozide] was tested. Which fraction did it give?
Answer: 0.924 ± 0.13

Question: For Cc1cc(O)ccc1Cl [Chlorocresol], which fraction is on record?
Answer: 0.985 ± 0.025

Question: How did the fraction turn out when O=C(O)c1nn(Cc2ccc(Cl)cc2Cl)c2ccccc12 [Lonidamine] was run?
Answer: 0.9963 ± 0.0064
